The values that follow come from doi:10.1101/2022.12.02.518933.

Where a chain is given by its changes, count along the chain named. Numbers in names are those of the source. Results are given in words; binding and its absence hold for the method and conditions named. Some entries that bind do so weakly or less than the wild type.

Experiment [1] has as its target T1, BtuCD (wild type) reconstituted into MSP1E3D1 nanodiscs with E. coli polar lipids (E. coli) (UniProt P06609+P06611).
T1 sequence 1: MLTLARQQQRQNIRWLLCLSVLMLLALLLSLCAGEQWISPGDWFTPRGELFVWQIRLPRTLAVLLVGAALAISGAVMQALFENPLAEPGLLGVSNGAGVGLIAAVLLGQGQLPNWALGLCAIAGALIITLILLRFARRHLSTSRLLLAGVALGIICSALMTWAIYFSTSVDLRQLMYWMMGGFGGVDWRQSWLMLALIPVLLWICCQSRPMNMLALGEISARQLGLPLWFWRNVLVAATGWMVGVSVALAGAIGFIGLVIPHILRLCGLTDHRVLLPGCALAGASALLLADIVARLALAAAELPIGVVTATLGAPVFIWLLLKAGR
T1 sequence 2: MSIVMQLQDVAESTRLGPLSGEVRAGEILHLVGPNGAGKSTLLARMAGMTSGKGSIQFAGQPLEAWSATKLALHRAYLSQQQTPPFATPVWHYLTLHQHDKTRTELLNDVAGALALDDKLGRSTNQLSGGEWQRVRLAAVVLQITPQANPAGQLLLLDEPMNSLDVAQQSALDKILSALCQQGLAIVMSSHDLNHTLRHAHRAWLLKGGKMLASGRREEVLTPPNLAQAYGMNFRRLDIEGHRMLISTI
In words: fluorescence polarisation.

The target in experiment [2] is T1, BtuCD (wild type) reconstituted into MSP1E3D1 nanodiscs with E. coli polar lipids (E. coli). In words: other fluorescence titration.
Experiment [3] shares this target. Description: fluorescence polarisation. This is another data set of the same source. Background: Polarisation of emitted light reports the rotation of a fluorescent probe.

B1: unlabeled BtuF (protein, UniProt P37028 23-266)
chain: APRVITLSPANTELAFAAGITPVGVSSYSDYPPQAQKIEQVSTWQGMNLERIVALKPDLVIAWRGGNAERQVDQLASLGIKVMWVDATSIEQIANALRQLAPWSPQPDKAEQAAQSLLDQYAQLKAQYADKPKKRVFLQFGINPPFTSGKESIQNQVLEVCGGENIFKDSRVPWPQVSREQVLARSPQAIVITGGPDQIPKIKQYWGEQLKIPVIPLTSDWFERASPRIILAAQQLCNALSQVD
For the molecule B1, the binding entry in experiment [1] is “binds”.

B2: AlexaFluor 546 (AF546)-labeled E. coli BtuF (protein, UniProt P37028 23-266)
chain: B1 chain
modifications: Alexa Fluor 546 C5 maleimide on the cysteine appended to the C-terminus
Take B2: the binding entry in experiment [2], in experiment [3] and in experiment [1] was “binds” throughout.

B3: AF546-labeled BtuF harboring the E72A mutation (protein, UniProt P37028 23-266)
chain: B1 chain with E50A
modifications: Alexa Fluor 546 C5 maleimide on the cysteine appended to the C-terminus
Take B3: the binding result in experiment [1] is recorded as “binds”.

B4: AF546-labeled BtuF harboring the E202A mutation (protein, UniProt P37028 23-266)
chain: B1 chain with E180A
modifications: Alexa Fluor 546 C5 maleimide on the cysteine appended to the C-terminus
For the molecule B4, in experiment [1], the binding result is recorded as “binds”.
